Experimental data: PubChem BioAssay AID504793 (Drosophila RNAi Screening Center, 2011)
In all, the deposit lists about 23,000 reagents; shown is a random part of those with a known target gene and a result. In the full data, 62 (0.27%) were called active. 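Calls come from follow-up tests whose scores are not deposited, so confirmed genes may have low counts here; counts are not normalised per plate.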 Raw values are not corrected between plates. Unmarked entries are inactive.

Screen: 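Knock-downs allowing continued mitosis even though DNA is damaged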 (primary screen)
System: Drosophila S2R+ cells
Reagent: long dsRNA against Drosophila genes, about 0.25 µg dsRNA per well
Timing: 4 days of dsRNA, then 4 hours of drug before read-out
Challenge: doxorubicin 0.5 µM for 4 hours to cause double-strand breaks, in cells also given a low, harmless dose of dsRNA against nbs to sensitise the assay
Measured: 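Per-well count of mitotic cells stained for phospho-histone H3 after doxorubicin exposure, used as mitotic index; counts are raw and not normalised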
Reading the numbers: mitotic cells: higher = more cells in mitosis, weaker G2 arrest
Call rule: 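a call needs confirmation in secondary tests, with other dsRNAs and a check of mitotic timing without damage, not just a high primary count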
Meaning of the calls: active = confirmed in follow-up tests; inactive = not confirmed

What is on record for CG3071 [DRSC18526]?
mitotic cells, replicate 1: 3

For CG3071 [DRSC26289], what does the deposit list?
mitotic cells, replicate 1: 10

What did the screen give for CG4318 [DRSC19887]?
mitotic cells, replicate 1: 10

With Dlip3 [DRSC07401], how do the results read?
mitotic cells, replicate 1: 5

Which result is listed for Dlip3 [DRSC29615]?
mitotic cells, replicate 1: 6

What is on record for CG1888 [DRSC06797]?
mitotic cells, replicate 1: 5

For TTLL1A [DRSC20121], what was measured?
mitotic cells, replicate 1: 6

With trbl [DRSC11901], what was measured?
mitotic cells, replicate 1: 1

With Twdlbeta [DRSC07310], what does the deposit list?
mitotic cells, replicate 1: 7

Which result is listed for Twdlbeta [DRSC25646]?
mitotic cells, replicate 1: 1

Which result is listed for CG14422 [DRSC17919]?
mitotic cells, replicate 1: 5

What did the screen give for CG14422 [DRSC25359]?
mitotic cells, replicate 1: 6

How did the screen score CG5386 [DRSC25017]?
mitotic cells, replicate 1: 8

What is on record for Obp50d [DRSC05483]?
mitotic cells, replicate 1: 6

What did the screen give for Irp-1B [DRSC16720]?
mitotic cells, replicate 1: 5

How did the screen score Irp-1B [DRSC24261]?
mitotic cells, replicate 1: 7

How did the screen score Ibf1 [DRSC16419]?
mitotic cells, replicate 1: 9

For Mst84Db [DRSC12542], what does the deposit list?
mitotic cells, replicate 1: 5

How did the screen score Mst84Db [DRSC12598]?
mitotic cells, replicate 1: 3

With Mst84Db [DRSC29236], what does the deposit list?
mitotic cells, replicate 1: 5

For Naxe [DRSC18251], what was measured?
mitotic cells, replicate 1: 14

What did the screen give for CG10799 [DRSC06002]?
mitotic cells, replicate 1: 8

With CG15734 [DRSC19701], what was measured?
mitotic cells, replicate 1: 16

What is on record for Cyp6u1 [DRSC05015]?
mitotic cells, replicate 1: 10

For Cyp6u1 [DRSC26528], what was measured?
mitotic cells, replicate 1: 11

How did the screen score CG11825 [DRSC06090]?
mitotic cells, replicate 1: 5

For CG11825 [DRSC27780], how do the results read?
mitotic cells, replicate 1: 2

What is on record for AnxB9 [DRSC14111]?
mitotic cells, replicate 1: 7

With AnxB9 [DRSC25715], how do the results read?
mitotic cells, replicate 1: 6

For CG31205 [DRSC13438], how do the results read?
mitotic cells, replicate 1: 21

For CG31205 [DRSC26824], what was measured?
mitotic cells, replicate 1: 15

What did the screen give for Gbs-76A [DRSC11081]?
mitotic cells, replicate 1: 8

What did the screen give for CG13676 [DRSC10035]?
mitotic cells, replicate 1: 3

For CG4496 [DRSC02753], how do the results read?
mitotic cells, replicate 1: 6

Laid out differently: entries from further up.
Gene,DRSC id,"mitotic cells, replicate 1"
CG11825,DRSC27780,2
AnxB9,DRSC14111,7
AnxB9,DRSC25715,6
CG31205,DRSC13438,21
